From the supplement of paper PMC8728848
The list shows a part of the results.

What was measured:
Test in all cases: glycan array binding signal (z-score within array); higher = stronger binding
Details in all cases: glycan notation: IUPAC condensed, linker removed
[1] = molecular target: Gal(b1-3)GlcNAc(b1-2)Man(a1-3)[Gal(b1-3)GlcNAc(b1-2)Man(a1-6)]Man(b1-4)GlcNAc(b1-4)[Fuc(a1-6)]GlcNAc
In short: (§1)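 Glycan array data came from 3228 arrays in the Consortium for Functional Glycomics database, and only arrays with an available protein sequence were kept. Glycan names were put into IUPAC-condensed notation, and columns mapping to the same glycan were averaged. The binding signal is a within-array Z-score, averaged across arrays of one protein sequence run at different concentrations or buffers and across linkers. A negative Z-score can be read as non-binding.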

[2] = molecular target: Gal(b1-3)GlcNAc(b1-2)Man(a1-3)[GlcNAc(b1-4)][Gal(b1-3)GlcNAc(b1-2)Man(a1-6)]Man(b1-4)GlcNAc(b1-4)GlcNAc
In short: as §1

[3] = molecular target: Gal(b1-3)GlcNAc(b1-2)[Gal(b1-3)GlcNAc(b1-6)]Man(a1-6)[Gal(b1-3)GlcNAc(b1-2)Man(a1-3)]Man(b1-4)GlcNAc(b1-4)GlcNAc
In short: as §1

[4] = molecular target: Gal(b1-3)GlcNAc(b1-3)Gal(b1-3)GlcNAc
In short: as §1

[5] = molecular target: Gal(b1-3)GlcNAc(b1-3)Gal(b1-4)Glc
In short: as §1

[6] = molecular target: Gal(b1-3)GlcNAc(b1-3)Gal(b1-4)GlcNAc
In short: as §1

[7] = molecular target: Gal(b1-3)GlcNAc(b1-3)Gal(b1-4)GlcNAc(b1-2)Man(a1-3)[Gal(b1-3)GlcNAc(b1-3)Gal(b1-4)GlcNAc(b1-2)Man(a1-6)]Man(b1-4)GlcNAc(b1-4)GlcNAc
In short: as §1

[8] = molecular target: Gal(b1-3)GlcNAc(b1-3)Gal(b1-4)GlcNAc(b1-2)[Gal(b1-3)GlcNAc(b1-3)Gal(b1-4)GlcNAc(b1-6)]Man(a1-6)[Gal(b1-3)GlcNAc(b1-3)Gal(b1-4)GlcNAc(b1-2)Man(a1-3)]Man(b1-4)GlcNAc(b1-4)[Fuc(a1-6)]GlcNAc
In short: as §1

[9] = molecular target: Gal(b1-3)GlcNAc(b1-3)Gal(b1-4)GlcNAc(b1-3)Gal(b1-4)GlcNAc(b1-2)[Gal(b1-3)GlcNAc(b1-3)Gal(b1-4)GlcNAc(b1-3)Gal(b1-4)GlcNAc(b1-6)]Man(a1-6)[Gal(b1-3)GlcNAc(b1-3)Gal(b1-4)GlcNAc(b1-3)Gal(b1-4)GlcNAc(b1-2)Man(a1-3)]Man(b1-4)GlcNAc(b1-4)[Fuc(a1-6)]GlcNAc
In short: as §1

[10] = molecular target: Gal(b1-3)GlcNAc(b1-3)Gal(b1-4)GlcNAc(b1-6)[Gal(b1-3)GlcNAc(b1-3)]Gal(b1-4)Glc
In short: as §1

[11] = molecular target: Gal(b1-3)GlcNAc(b1-3)Gal(b1-4)[Fuc(a1-3)]GlcNAc(b1-6)[Gal(b1-3)GlcNAc(b1-3)]Gal(b1-4)Glc
In short: as §1

[12] = molecular target: Gal(b1-3)GlcNAc(b1-3)GalNAc
In short: as §1

[13] = molecular target: Gal(b1-3)GlcNAc(b1-6)Gal(b1-4)GlcNAc
In short: as §1

[14] = molecular target: Gal(b1-3)GlcNAc(b1-6)GalNAc
In short: as §1

[15] = molecular target: Gal(b1-3)GlcNAc(b1-6)[Gal(b1-3)]GalNAc
In short: as §1

Gal(b1-3)GlcNAc6S = molecular target: Gal(b1-3)GlcNAc6S
In short: as §1

[16] = molecular target: Gal(b1-3)[Fuc(a1-4)]GlcNAc
In short: as §1

[17] = molecular target: Gal(b1-3)[Fuc(a1-4)]GlcNAc(b1-2)Man
In short: as §1

[18] = molecular target: Gal(b1-3)[Fuc(a1-4)]GlcNAc(b1-2)Man(a1-3)[Gal(b1-3)[Fuc(a1-4)]GlcNAc(b1-2)Man(a1-6)]Man(b1-4)GlcNAc(b1-4)[Fuc(a1-6)]GlcNAc
In short: as §1

[19] = molecular target: Gal(b1-3)[Fuc(a1-4)]GlcNAc(b1-3)Gal(b1-3)[Fuc(a1-4)]GlcNAc
In short: as §1

[20] = molecular target: Gal(b1-3)[Fuc(a1-4)]GlcNAc(b1-3)Gal(b1-4)GlcNAc
In short: as §1

[21] = molecular target: Gal(b1-3)[Fuc(a1-4)]GlcNAc(b1-3)Gal(b1-4)[Fuc(a1-3)]GlcNAc
In short: as §1

[22] = molecular target: Gal(b1-3)[Fuc(a1-4)]GlcNAc(b1-6)GalNAc
In short: as §1

[23] = molecular target: Gal(b1-3)[GlcNAc(b1-6)]GalNAc
In short: as §1

[24] = molecular target: Gal(b1-3)[Neu5Ac(a2-6)]GalNAc
In short: as §1

[25] = molecular target: Gal(b1-3)[Neu5Ac(a2-6)]GlcNAc(b1-4)Gal(b1-4)Glc
In short: as §1

[26] = molecular target: Gal(b1-3)[Neu5Ac(b2-6)]GalNAc
In short: as §1

Gal(b1-4)Gal = molecular target: Gal(b1-4)Gal
In short: as §1

[27] = molecular target: Gal(b1-4)GalNAc(a1-3)[Fuc(a1-2)]Gal(b1-4)GlcNAc
In short: as §1

[28] = molecular target: Gal(b1-4)GalNAc(b1-3)[Fuc(a1-2)]Gal(b1-4)GlcNAc
In short: as §1

B1: Protein L(A-C2) (Finegoldia magna), Q51912 (protein)
chain: ADEPIDLEKLEEKRDKENVGNLPKFDNEVKDGSENPMAKYPDFDDEASTRFETENNEFEEKKVVSDNFFDQSEHPFVENKEETPETPETDSEEEVTIKANLIFANGSTQTAEFKGTFEKATSEAYAYADTLKKDNGEYTVDVADKGYTLNIKFAGKEKTPEEPKEEVTIKANLIYADGKTQTAEFKGTFEEATAEAYRYADALKKDNGEYTVDVADKGYTLNIKFAGKEKTPEEPKEEVTIKANLIYADGKTQTAEFKGTFEEATAEAYRYADLLAKENGKYTVDVADKGYTLNIKFAGKEKTPEEPKEEVTIKANLIYADGKTQTAEFKGTFAEATAEAYRYADLLAKENGKYTADLEDGGYTINIRFAGKKVDEKPEEKEQVTIKENIYFEDGTVQTATFKGTFAEATAEAYRYADLLSKEHGKYTADLEDGGYTINIRFAGKEEPEETPEKPEVQDGYASYEEAEAAAKEALKNDDVNKSYTIRQGADGRYYYVLSPVEAEEEKPEAQNGYATYEEAEAAAKKALENDPINKSYSIRQGADGRYYYVLSPVEAE
glycan array binding signal (z-score) [1]: 0.716
glycan array binding signal (z-score) [2]: 0.568
glycan array binding signal (z-score) [3]: -0.452
glycan array binding signal (z-score) [4]: 0.408
glycan array binding signal (z-score) [5]: -0.501
glycan array binding signal (z-score) [6]: -0.169
glycan array binding signal (z-score) [7]: 0.059
glycan array binding signal (z-score) [8]: 1.58
glycan array binding signal (z-score) [9]: 1.35
glycan array binding signal (z-score) [10]: -0.41
glycan array binding signal (z-score) [11]: -1.06
glycan array binding signal (z-score) [12]: 0.076
glycan array binding signal (z-score) [13]: -1.08
glycan array binding signal (z-score) [14]: -0.728
glycan array binding signal (z-score) [15]: 0.438
glycan array binding signal (z-score) (Gal(b1-3)GlcNAc6S): -0.704
glycan array binding signal (z-score) [16]: -0.236
glycan array binding signal (z-score) [17]: 1.14
glycan array binding signal (z-score) [18]: 0.327
glycan array binding signal (z-score) [19]: -0.195
glycan array binding signal (z-score) [20]: -0.879
glycan array binding signal (z-score) [21]: 0.013
glycan array binding signal (z-score) [22]: 3.16
glycan array binding signal (z-score) [23]: 0.081
glycan array binding signal (z-score) [24]: -0.572
glycan array binding signal (z-score) [25]: -0.654
glycan array binding signal (z-score) [26]: -0.532
glycan array binding signal (z-score) (Gal(b1-4)Gal): 1.31
glycan array binding signal (z-score) [27]: -0.271
glycan array binding signal (z-score) [28]: -0.365
